PubChem BioAssay AID493246 | Drosophila RNAi Screening Center | 2011
In all, the deposit lists about 21,000 reagents; shown is an unselected part of those that have a named target and a result. Of all reagents, 429 (2%) are marked active. 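Values are raw and not normalised between plates; calls rest on per-plate z-scores that were not deposited.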 Unmarked entries are inactive. The numbers tell different reagents against one gene apart. Names joined by + are all predicted targets of the reagent. Not given: the amount of reagent, the time to read-out.

- Aim: 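Identify essential fly genes by loss of cell viability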 (primary screen)
- System: Drosophila Kc and S2R+ cells
- Knock-down reagent: long dsRNA against Drosophila genes
- Measured: 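Cell number per well after knock-down, printed as raw plate values; calls were based on per-plate z-scores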
- Direction: Kc cell number and S2R+ cell number: higher = more cells remaining
- Active means: 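Active when the per-plate z-score of cell number is 3 or more in the direction of fewer cells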

Target gene	reagent no.	Kc cell number, rep 1	Kc cell number, rep 2	S2R+ cell number, rep 1	S2R+ cell number, rep 2
CG43737	1	1.54e6	1.56e6	1.17e6	1.22e6
RhoU	1	1.25e6	1.63e6	1.08e6	1.14e6
RhoU	2	1.62e6	1.52e6	1.13e6	1.17e6
RhoU	3	1.41e6	1.50e6	1.09e6	1.21e6
CG13073	1	1.36e6	1.59e6	1.32e6	1.38e6
CG13917	1	1.30e6	1.43e6	1.19e6	1.21e6
gdl-ORF39 + gdl	1	1.57e6	1.70e6	1.31e6	1.42e6
Eh	1	1.19e6	1.23e6	1.16e6	1.30e6
yellow-f2	1	1.92e6	1.92e6	1.37e6	1.45e6
Myo95E	1	1.52e6	1.61e6	1.20e6	1.24e6
Pi3K92E	1	1.54e6	1.67e6	1.20e6	1.27e6
cocoon	1	1.40e6	1.57e6	1.34e6	1.42e6
CG18417	1	1.43e6	1.32e6	1.14e6	1.20e6
CG32373	1	1.49e6	1.48e6	1.20e6	1.37e6
CG32564	1	1.56e6	1.55e6	1.13e6	1.25e6
CG17169	1	1.53e6	1.61e6	1.14e6	1.32e6
nau	1	1.68e6	1.59e6	9.80e5	1.06e6
Mst57Dc	1	1.62e6	1.74e6	1.01e6	1.09e6
Lpin	1	1.35e6	1.43e6	1.15e6	1.23e6
CG32075	1	1.51e6	1.49e6	1.25e6	1.29e6
CG3764	1	1.63e6	1.71e6	1.20e6	1.35e6
Vlet	1	5.15e5		7.99e5	
GluRIIC	1	1.31e6	1.28e6	8.82e5	1.03e6
CG4613	1	1.67e6	1.79e6	1.27e6	1.34e6
dpr17	1	1.33e6	1.52e6	1.06e6	1.13e6
dpr17	2	1.36e6	1.24e6	8.62e5	9.38e5
dpr17	3	1.66e6	1.55e6	1.28e6	1.34e6
Vps16A	1	1.82e6	1.81e6	1.16e6	1.34e6
CG12307	1	1.73e6	1.88e6	1.42e6	1.62e6
RpS6	1	3.79e5		6.81e5	
Sox100B	1	1.36e6	1.43e6	8.40e5	9.14e5
Sox100B	2	1.58e6	1.64e6	1.01e6	1.13e6
NAT1	1	1.50e6	1.53e6	1.14e6	1.24e6
CG15927	1	1.53e6	1.40e6	1.11e6	1.21e6
dome	1	1.52e6	1.55e6	1.04e6	1.20e6
CG3036	1	1.57e6	1.63e6	1.18e6	1.27e6
CG3036	2	1.21e6	1.36e6	5.25e5	6.16e5
CG7091	1	1.36e6	1.57e6	1.06e6	1.18e6
CG7091	2	1.54e6	1.54e6	1.15e6	1.26e6
brwl	1	1.34e6	1.27e6	8.41e5	9.37e5
brwl	2	1.33e6	1.39e6	1.03e6	1.07e6

Already shown: entries from further up.
Target gene	reagent no.	Kc cell number, rep 1	Kc cell number, rep 2	S2R+ cell number, rep 1	S2R+ cell number, rep 2
CG15927	1	1.53e6	1.40e6	1.11e6	1.21e6
dome	1	1.52e6	1.55e6	1.04e6	1.20e6
CG3036	1	1.57e6	1.63e6	1.18e6	1.27e6
